Reference: patent publication US20110165092A1, “COSMETIC AND/OR DERMATOLOGICAL COMPOSITION” (Universite de la Mediterranee, Aix-Marseille II, priority 2008, published 2011)
At least one structure is not confirmed: it was looked up by name or label, or the drawing left a doubt.

Test system: Zmpste24−/− mice
Assay: Progeroid phenotype of Zmpste24−/− mice (Example 9)
Type: in vivo, mouse
Details: daily treatment, FIG. 15

With `CC[C@H](C)C(=O)O[C@H]1C[C@H](O)C=C2C=C[C@H](C)[C@H](CC[C@@H](O)C[C@@H](O)CC(=O)O)[C@H]21` [pravastatin] the “lifespan of the Zmpste24−/− mice, each drug separately” value was “does not improve the lifespan”.
